Where a name gives a salt, the structure may show the parent alone. This is one part of the list. Single values are uncertain here, since repeats match poorly.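 The cells were human embryonic kidney cells carrying a Renilla luciferase gene, driven by the HSV-TK promoter, on a plasmid put in briefly by transfection. This is the first-round screen of about ten thousand compounds, looking for ones that raise reporter output.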
Each molecule was assayed on HEK 293FT (assay: log relative Renilla luciferase luminescence (reporter expression vs reference, reference not stated) (log (base not stated)); higher = higher recombinant reporter expression). Details: 10 µM; time after transfection 48 h.

First: Cc1c(N(C)C)c(=O)n(-c2ccccc2)n1C [aminopyrine]
Second: CC1=NN(c2ccccc2)C(=O)C1 [edaravone]
The log of the first is lower: -1.3 for the first, 0.0552 for the second.

`CCN(CC)CCNC(=O)c1cc(Cl)c(N)cc1OC` [metoclopramide hydrochloride] and `COc1cc(C(=O)NCc2ccc(OCCN(C)C)cc2)cc(OC)c1OC` [trimethobenzamide hydrochloride] are within 0.2 log units of each other in log: 0.138 for the first, -0.0295 for the second.

`COc1ccc(-c2oc3cc(OC)c(OC)c(OC)c3c(=O)c2OC)cc1` [3,4',5,6,7-pentamethoxyflavone] and `COc1ccc2c(c1)OCC(Cc1ccc(OC)c(O)c1)C2=O` (configuration not stated) [deoxysappanone b 7,4'-dimethyl ether] are within 0.2 log units of each other in log: 0.33 for the first, 0.217 for the second.

Going from `NCCCNCCCCNCCCN` [spermine] to `NCCCC(=O)O` [gamma-aminobutyric acid], the log falls from 0.0906 to -1.28.

First: CC(C)(CO)C(O)C(=O)NCCCO (stereo not drawn) [panthenol (dl)]
Second: CN[C@H](CC(=O)O)C(=O)O [n-methyl-d-aspartic acid (nmda)]
The log of the first is lower: -0.0569 for the first, 0.165 for the second.

Compared with `CCOc1ccc2ccccc2c1C(=O)N[C@@H]1C(=O)N2[C@@H]1SC(C)(C)[C@@H]2C(=O)O` [nafcillin sodium], `Cc1onc(-c2ccccc2Cl)c1C(=O)N[C@@H]1C(=O)N2[C@@H]1SC(C)(C)[C@@H]2C(=O)O` [cloxacillin sodium] is lower in log: 0.0837 for the first, -0.12 for the second.

Going from `Cn1cnc2c1c(=O)[nH]c(=O)n2C` [theobromine] to `Cn1c(=O)[nH]c2ncn(C)c2c1=O` [paraxanthine], the log falls from 0.192 to -0.104.

Going from `C[n+]1c2cc(N)ccc2cc2ccc(N)cc21` [acriflavinium hydrochloride] to `CCc1nc(N)nc(N)c1-c1ccc(Cl)cc1` [pyrimethamine], the log rises from -0.59 to 0.0583.

Compared with `O=C(N[C@H](CO)[C@H](O)c1ccc([N+](=O)[O-])cc1)C(Cl)Cl` [chloramphenicol], `CC(=O)NC(Cc1ccccc1)C(=O)O` (configuration not stated) [afalanine] is higher in log: -0.151 for the first, 0.0919 for the second.

`O=C(O)CCNC(=O)c1ccccc1` [betamipron] and `COC(=O)C(Cc1ccccc1)NC(=O)/C(=C1/OC(=O)C(c2ccccc2)=C1O)c1ccccc1` (configuration not stated) [rhizocarpic acid] are within 0.2 log units of each other in log: 0.0382 for the first, -0.0912 for the second.

`CCC[C@@H]1C[C@@H](C(=O)N[C@@H]([C@H]2O[C@H](SC)[C@H](O)[C@@H](O)[C@H]2O)[C@H](C)Cl)N(C)C1` [clindamycin hydrochloride] and `C/C(=C\C(=O)OCCCCCCCCC(=O)O)C[C@@H]1OC[C@H](C[C@@H]2O[C@H]2[C@@H](C)[C@H](C)O)[C@@H](O)[C@H]1O` [mupirocin] are within 0.2 log units of each other in log: -0.0491 for the first, 0.0654 for the second.

`CN(C)CCC=C1c2ccccc2COc2ccccc21` [doxepin hydrochloride] and `CC(C)[N+](C)(CCOC(=O)C1c2ccccc2Oc2ccccc21)C(C)C` [propantheline bromide] are within 0.2 log units of each other in log: -0.223 for the first, -0.0604 for the second.

`CN1CCC[C@@H]1Cc1c[nH]c2ccc(CCS(=O)(=O)c3ccccc3)cc12` [eletriptan hydrobromide] and `CCOC(=O)COc1ccc2c(=O)cc(-c3ccccc3)oc2c1` [efloxate] are within 0.2 log units of each other in log: 0.0116 for the first, 0.0766 for the second.

`Nc1ccccc1S(N)(=O)=O` [2-aminobenzenesulfonamide] and `CCOc1ccc2nc(S(N)(=O)=O)sc2c1` [ethoxzolamide] are within 0.2 log units of each other in log: 0.0464 for the first, 0.0797 for the second.

`CC1=CC(=O)C(C(C)C)=CC1=O` [thymoquinone] and `C=CC(C1=CC(=O)C(OC)=CC1=O)c1ccccc1` (configuration not stated) [4-methoxydalbergione] are within 0.2 log units of each other in log: 0.00551 for the first, 0.121 for the second.

`OCc1cccnc1` [nicotinyl alcohol tartrate] and `COc1ccc(O)cc1` [mequinol] are within 0.2 log units of each other in log: 0.0534 for the first, -0.0195 for the second.

`O=Cc1ccccc1O[C@@H]1O[C@H](CO)[C@@H](O)[C@H](O)[C@H]1O` [helicin] and `CN[C@@H]1[C@@H](O[C@H]2O[C@H](CO)[C@@H](N)[C@H](O)[C@H]2O)OC2C[C@@H](N)[C@@H](O[C@H]3[C@H](O)[C@@H](O)[C@H](N)C[C@@H]3N)OC2[C@@H]1O` (some centres not stated) [apramycin sulfate] are within 0.2 log units of each other in log: 0.053 for the first, -0.00296 for the second.

`NS(=O)(=O)c1cc2c(cc1Cl)NC(C(Cl)Cl)NS2(=O)=O` (configuration not stated) [trichlormethiazide] and `Clc1ccc(C(Cn2ccnc2)OCc2ccsc2Cl)c(Cl)c1` (configuration not stated) [tioconazole] are within 0.2 log units of each other in log: -0.178 for the first, 0.0192 for the second.

`CN[C@@H]1[C@H](O)[C@H](NC)[C@H]2O[C@@]3(O)C(=O)C[C@@H](C)O[C@H]3O[C@@H]2[C@H]1O` [spectinomycin hydrochloride] and `CC(=O)[C@@]1(O)CC[C@H]2[C@@H]3C[C@H](C)C4=CC(=O)C=C[C@]4(C)[C@@]3(F)[C@@H](O)C[C@@]21C` [fluorometholone] are within 0.2 log units of each other in log: 0.106 for the first, 0.0637 for the second.

`CC12CCC(CC1=O)C2(C)C` (configuration not stated) [camphor (1r)] and `CC(C)CCC[C@@H](C)[C@H]1CC[C@H]2[C@@H]3CC(=O)[C@H]4C[C@@H](O)CC[C@]4(C)[C@H]3CC[C@]12C` [5alpha-cholestan-3beta-ol-6-one] are within 0.2 log units of each other in log: -0.0201 for the first, 0.0583 for the second.

`C[C@@H]1NC(=O)[C@@H](N)CNC(=O)[C@H](C2CCNC(=N)N2)NC(=O)/C(=C/NC(N)=O)NC(=O)[C@H](CNC(=O)CC(N)CCCN)NC1=O.N=C1NCC[C@H]([C@@H]2NC(=O)/C(=C/NC(N)=O)NC(=O)[C@H](CNC(=O)C[C@@H](N)CCCN)NC(=O)[C@H](CO)NC(=O)[C@@H](N)CNC2=O)N1` [capreomycin sulfate] and `CCC/C=C\C=C/C(=O)N[C@@H](CC(N)=O)C(=O)NC(CC(N)=O)C(=O)N[C@@H](C(=O)N[C@H](CCCN)C(=O)N[C@@H](C(=O)N[C@@H](C(=O)N[C@@H](C(=O)N[C@H](C(=O)N[C@@H](Cc1ccccc1)C(=O)N[C@H](CCCN)C(=O)NC(C(=O)N[C@H](C(=O)NC(C(=O)NCC(=O)N[C@@H](CC(C)C)C(=O)N[C@H](C)C(=O)NC(C(=O)O)C1CCC(O)C(Cl)C1)C1CCC(O)CC1)[C@H](C)O)C1CCC(O)CC1)[C@H](C)O)C1CCC(O)CC1)C1CCC(O)CC1)[C@H](C)O)C1CCC(O)CC1` (some centres not stated) [ramoplanin [a2 shown; 2mm]] are within 0.2 log units of each other in log: -0.000473 for the first, 0.0105 for the second.

`CC1(C)O[C@H]2CC(=O)OC[C@]23[C@H]2CC[C@@]4(C)[C@H](c5ccoc5)OC(=O)[C@H]5O[C@]54[C@]2(C)C(=O)C[C@@H]13` [limonin] and `C[C@@H]1C[C@H]2[C@@H]3CCC4=CC(=O)C=C[C@]4(C)[C@@]3(Cl)[C@@H](O)C[C@]2(C)[C@@]1(OC(=O)c1ccco1)C(=O)CCl` [mometasone furoate] are within 0.2 log units of each other in log: -0.601 for the first, -0.442 for the second.

`CC(=O)Oc1cc(OC(C)=O)c2c(c1)O[C@H](c1ccc(OC(C)=O)c(OC(C)=O)c1)[C@@H](OC(C)=O)C2` [catechin pentaacetate] and `COc1c(CC(=O)c2cc3c(cc2O)OC(C)(C)C(O)C3)ccc2c1C=CC(C)(C)O2` (configuration not stated) [dihydromunduletone] are within 0.2 log units of each other in log: 0.101 for the first, -0.0702 for the second.

`CCCCCCOC(=O)NC(=N)c1ccc(NCc2nc3cc(C(=O)N(CCC(=O)OCC)c4ccccn4)ccc3n2C)cc1` [dabigatran etexilate mesylate] and `CCOc1nc2cccc(C(=O)OCc3oc(=O)oc3C)c2n1Cc1ccc(-c2ccccc2-c2noc(=O)[nH]2)cc1` [azilsartan kamedoxomil] are within 0.2 log units of each other in log: -0.0801 for the first, -0.0419 for the second.

`CCCCCCCCCCCCCCCCCCCCCCO` [docosanol] and `C[C@@H]1CC[C@H]2[C@](C)(CO)[C@@H](O)CC[C@]2(C)[C@@]12CC[C@@](CO)(CCO)O2` [lagochilin] are within 0.2 log units of each other in log: -0.075 for the first, -0.0396 for the second.

`O=C1/C(=C/c2cccs2)CCC/C1=C\c1cccs1` [tenylidone] and `CN1CC(=O)N2[C@H](c3ccc4c(c3)OCO4)c3[nH]c4ccccc4c3C[C@@H]2C1=O` [tadalafil] are within 0.2 log units of each other in log: 0.066 for the first, 0.14 for the second.

First: C[C@H]1c2cccc(O)c2C(=O)C2=C(O)[C@]3(O)C(=O)C(C(N)=O)=C(O)[C@@H](N(C)C)[C@@H]3[C@@H](O)[C@@H]21 [doxycycline hydrochloride]
Second: C[C@](N)(Cc1ccc(O)c(O)c1)C(=O)O [methyldopa]
The log of the first is lower: -0.144 for the first, 0.0773 for the second.

`O=C(O)C(=O)O.[NH-][C@@H]1CCCC[C@H]1[NH-].[Pt+2]` [oxaliplatin] and `O=C(O)C1CC([C@@H]2CCCCN2)CN2CCCCC12` (some centres not stated) [aphyllic acid] are within 0.2 log units of each other in log: -0.0488 for the first, 0.0522 for the second.

`Cc1ccc(NC(=O)c2ccc(CN3CCN(C)CC3)cc2)cc1Nc1nccc(-c2cccnc2)n1` [imatinib] and `COc1ccc(/C=C/C(=O)c2ccc(O)cc2O)cc1` [2',4'-dihydroxy-4-methoxychalcone] are within 0.2 log units of each other in log: 0.0623 for the first, 0.164 for the second.

First: O=C(O)c1cn(C2CC2)c2cc(N3CCNCC3)c(F)cc2c1=O [ciprofloxacin]
Second: O=c1oc2cc(O)ccc2s1 [tioxolone]
The log of the first is higher: 0.192 for the first, -0.311 for the second.

First: C#CCN[C@@H]1CCc2ccccc21 [rasagiline]
Second: c1coc(CNc2ncnc3[nH]cnc23)c1 [kinetin]
The log of the first is lower: -0.108 for the first, 0.123 for the second.

`Cc1cc(C(C)(C)C)c(O)c(C(C)(C)C)c1` [butylated hydroxytoluene] and `CC1/C=C/C=C/C=C/C=C/C=C/C=C/C=C/C(OC2O[C@H](C)[C@@H](O)[C@H](N)[C@@H]2O)CC(O)C(C(=O)O)C(O)CC(=O)CC(O)CC(O)CC(O)CC(=O)CCCC(=O)CC(=O)OC1C(C)CC(C)C(O)CC(=O)c1ccc(N)cc1` (some centres not stated) [candicidin] are within 0.2 log units of each other in log: 0.0427 for the first, -0.149 for the second.

`C=CCSSSCC=C` [diallyl trisulfide] and `N[C@@H](CSCSC[C@H](N)C(=O)O)C(=O)O` [djenkolic acid] are within 0.2 log units of each other in log: -0.068 for the first, 0.0182 for the second.

In the case of `C1CCC(C(CC2CCCCN2)C2CCCCC2)CC1` (configuration not stated) [perhexiline maleate], the log is reported as 0.0746.
